Source: patent US4711877A (SmithKline Beckman Corporation, priority 1985, dated 1987)

Assay: general procedure: Boc solid-phase peptide synthesis; benzhydrylamine resin; DCC/HOBT
Settings: whole synthesis, scale 1 mmol

PEPTIDE1{[Mpr].[D-Tyr(Et)].F.V.N.[Pen].P.R.G.[am]}$PEPTIDE1,PEPTIDE1,1:R3-6:R3$$$V2.0
crude mass: 754 mg

Some peptides are written in HELM: one residue between dots, names in brackets for other building blocks, links after the first $.
